# Measured values reported in the supplement of paper PMC8728848.
# Some of the results follow.
# B1: RsaA-N-term (Caulobacter crescentus), P35828 (protein)
# chain: MAYTTAQLVTAYTNANLGKAPDAATTLTLDAYATQTQTGGLSDAAALTNTLKLVNSTTAVAIQTYQFFTGVAPSAAGLDFLVDSTTNTNDLNDAYYSKFAQENRFINFSINLATGAGAGATAFAAAYTGVSYAQTVATAYDKIIGNAVATAAGVDVAAAVAFLSRQANIDYLTAFVRANTPFTAAADIDLAVKAALIGTILNAATVSGIGGYATATAAMINDLSDGALSTDNAAGVNLFTAYPSSGVSGSTLSLTTGTDTLTGTANNDTFVAGEVAGDGSGWSHPQFEKGG
# What was measured:
# Assay in all cases: glycan array binding signal (z-score within array); higher = stronger binding
# Conditions in all cases: glycan notation: IUPAC condensed, linker removed
# Neu5Ac(a2-3)Gal = molecular target: Neu5Ac(a2-3)Gal
# Summary of the method: (§1)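 Glycan array binding is given as a within-array Z-score, which can be read as non-binding when negative. The arrays, 3228 of them, came from the Consortium for Functional Glycomics database and were retained only where the protein sequence was available. Z-scores were averaged across arrays of the same protein sequence at different concentrations or buffers and across linkers.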
# [1] = molecular target: Neu5Ac(a2-3)Gal(b1-3)GalNAc
# Summary of the method: as §1
# [2] = molecular target: Neu5Ac(a2-3)Gal(b1-3)GalNAc(b1-3)Gal(a1-4)Gal(b1-4)Glc
# Summary of the method: as §1
# [3] = molecular target: Neu5Ac(a2-3)Gal(b1-3)GalNAc(b1-4)Gal(b1-4)Glc
# Summary of the method: as §1
# [4] = molecular target: Neu5Ac(a2-3)Gal(b1-3)GalNAc(b1-4)[Neu5Ac(a2-3)]Gal(b1-4)Glc
# Summary of the method: as §1
# [5] = molecular target: Neu5Ac(a2-3)Gal(b1-3)GalNAc(b1-4)[Neu5Ac(a2-8)Neu5Ac(a2-3)]Gal(b1-4)Glc
# Summary of the method: as §1
# [6] = molecular target: Neu5Ac(a2-3)Gal(b1-3)GalNAc6S
# Summary of the method: as §1
# [7] = molecular target: Neu5Ac(a2-3)Gal(b1-3)GlcNAc
# Summary of the method: as §1
# [8] = molecular target: Neu5Ac(a2-3)Gal(b1-3)GlcNAc(b1-2)Man
# Summary of the method: as §1
# [9] = molecular target: Neu5Ac(a2-3)Gal(b1-3)GlcNAc(b1-2)Man(a1-3)[GlcNAc(b1-4)][Neu5Ac(a2-3)Gal(b1-3)GlcNAc(b1-2)Man(a1-6)]Man(b1-4)GlcNAc(b1-4)GlcNAc
# Summary of the method: as §1
# [10] = molecular target: Neu5Ac(a2-3)Gal(b1-3)GlcNAc(b1-2)Man(a1-3)[Neu5Ac(a2-3)Gal(b1-3)GlcNAc(b1-2)Man(a1-6)]Man(b1-4)GlcNAc(b1-4)GlcNAc
# Summary of the method: as §1
# [11] = molecular target: Neu5Ac(a2-3)Gal(b1-3)GlcNAc(b1-2)[Neu5Ac(a2-3)Gal(b1-3)GlcNAc(b1-4)]Man(a1-6)[Neu5Ac(a2-3)Gal(b1-3)GlcNAc(b1-2)Man(a1-3)]Man(b1-4)GlcNAc(b1-4)GlcNAc
# Summary of the method: as §1
# [12] = molecular target: Neu5Ac(a2-3)Gal(b1-3)GlcNAc(b1-3)Gal(b1-3)GlcNAc
# Summary of the method: as §1
# [13] = molecular target: Neu5Ac(a2-3)Gal(b1-3)GlcNAc(b1-3)Gal(b1-4)GlcNAc
# Summary of the method: as §1
# [14] = molecular target: Neu5Ac(a2-3)Gal(b1-3)GlcNAc(b1-3)GalNAc
# Summary of the method: as §1
# [15] = molecular target: Neu5Ac(a2-3)Gal(b1-3)GlcNAc(b1-6)GalNAc
# Summary of the method: as §1
# [16] = molecular target: Neu5Ac(a2-3)Gal(b1-3)GlcNAc6S
# Summary of the method: as §1
# [17] = molecular target: Neu5Ac(a2-3)Gal(b1-3)[Fuc(a1-4)]GlcNAc
# Summary of the method: as §1
# [18] = molecular target: Neu5Ac(a2-3)Gal(b1-3)[Fuc(a1-4)]GlcNAc(b1-3)Gal(b1-3)[Fuc(a1-4)]GlcNAc
# Summary of the method: as §1
# [19] = molecular target: Neu5Ac(a2-3)Gal(b1-3)[Fuc(a1-4)]GlcNAc(b1-3)Gal(b1-4)[Fuc(a1-3)]GlcNAc
# Summary of the method: as §1
# [20] = molecular target: Neu5Ac(a2-3)Gal(b1-3)[GlcNAc(b1-6)]GalNAc
# Summary of the method: as §1
# [21] = molecular target: Neu5Ac(a2-3)Gal(b1-3)[Neu5Ac(a2-6)]GalNAc
# Summary of the method: as §1
# [22] = molecular target: Neu5Ac(a2-3)Gal(b1-3)[Neu5Ac(a2-6)]GlcNAc(b1-3)[Fuc(a1-3)[Gal(b1-4)]GlcNAc(b1-6)]Gal(b1-4)Glc
# Summary of the method: as §1
# [23] = molecular target: Neu5Ac(a2-3)Gal(b1-3)]Neu5Ac(a2-3)Gal(b1-4)]GlcNAc
# Summary of the method: as §1
# Neu5Ac(a2-3)Gal(b1-4)Glc = molecular target: Neu5Ac(a2-3)Gal(b1-4)Glc
# Summary of the method: as §1
# [24] = molecular target: Neu5Ac(a2-3)Gal(b1-4)GlcNAc
# Summary of the method: as §1
# [25] = molecular target: Neu5Ac(a2-3)Gal(b1-4)GlcNAc(b1-2)Man
# Summary of the method: as §1
# [26] = molecular target: Neu5Ac(a2-3)Gal(b1-4)GlcNAc(b1-2)Man(a1-3)[GlcNAc(b1-4)][Neu5Ac(a2-3)Gal(b1-4)GlcNAc(b1-2)Man(a1-6)]Man(b1-4)GlcNAc(b1-4)GlcNAc
# Summary of the method: as §1
# [27] = molecular target: Neu5Ac(a2-3)Gal(b1-4)GlcNAc(b1-2)Man(a1-3)[Neu5Ac(a2-3)Gal(b1-4)GlcNAc(b1-2)Man(a1-6)]Man(b1-4)GlcNAc(b1-4)GlcNAc
# Summary of the method: as §1
# [28] = molecular target: Neu5Ac(a2-3)Gal(b1-4)GlcNAc(b1-2)Man(a1-3)[Neu5Ac(a2-3)Gal(b1-4)GlcNAc(b1-2)Man(a1-6)]Man(b1-4)GlcNAc(b1-4)[Fuc(a1-6)]GlcNAc
# Summary of the method: as §1
# [29] = molecular target: Neu5Ac(a2-3)Gal(b1-4)GlcNAc(b1-2)Man(a1-3)[Neu5Ac(a2-6)Gal(b1-4)GlcNAc(b1-2)Man(a1-6)]Man(b1-4)GlcNAc(b1-4)GlcNAc
# Summary of the method: as §1
# [30] = molecular target: Neu5Ac(a2-3)Gal(b1-4)GlcNAc(b1-2)[Neu5Ac(a2-3)Gal(b1-4)GlcNAc(b1-4)]Man(a1-3)[GlcNAc(b1-4)][Neu5Ac(a2-3)Gal(b1-4)GlcNAc(b1-2)[Neu5Ac(a2-3)Gal(b1-4)GlcNAc(b1-6)]Man(a1-6)]Man(b1-4)GlcNAc(b1-4)GlcNAc
# Summary of the method: as §1
# [31] = molecular target: Neu5Ac(a2-3)Gal(b1-4)GlcNAc(b1-2)[Neu5Ac(a2-3)Gal(b1-4)GlcNAc(b1-4)]Man(a1-3)[GlcNAc(b1-4)][Neu5Ac(a2-3)Gal(b1-4)GlcNAc(b1-4)Man(a1-6)]Man(b1-4)GlcNAc(b1-4)GlcNAc
# Summary of the method: as §1
# [32] = molecular target: Neu5Ac(a2-3)Gal(b1-4)GlcNAc(b1-2)[Neu5Ac(a2-3)Gal(b1-4)GlcNAc(b1-6)]Man(a1-6)[Neu5Ac(a2-3)Gal(b1-4)GlcNAc(b1-2)Man(a1-3)][GlcNAc(b1-4)]Man(b1-4)GlcNAc(b1-4)GlcNAc
# Summary of the method: as §1
# [33] = molecular target: Neu5Ac(a2-3)Gal(b1-4)GlcNAc(b1-3)Gal
# Summary of the method: as §1
# [34] = molecular target: Neu5Ac(a2-3)Gal(b1-4)GlcNAc(b1-3)Gal(b1-3)GlcNAc
# Summary of the method: as §1
# [35] = molecular target: Neu5Ac(a2-3)Gal(b1-4)GlcNAc(b1-3)Gal(b1-4)GlcNAc
# Summary of the method: as §1
binder,measurement,setting,value
B1,glycan array binding signal (z-score),Neu5Ac(a2-3)Gal,-0.241
same,glycan array binding signal (z-score),[1],0.562
same,glycan array binding signal (z-score),[2],-0.592
same,glycan array binding signal (z-score),[3],-1.34
same,glycan array binding signal (z-score),[4],-1.29
same,glycan array binding signal (z-score),[5],-0.481
same,glycan array binding signal (z-score),[6],0.427
same,glycan array binding signal (z-score),[7],0.45
same,glycan array binding signal (z-score),[8],-0.377
same,glycan array binding signal (z-score),[9],-0.59
same,glycan array binding signal (z-score),[10],7.19
same,glycan array binding signal (z-score),[11],0.029
same,glycan array binding signal (z-score),[12],-0.798
same,glycan array binding signal (z-score),[13],0.761
same,glycan array binding signal (z-score),[14],0.063
same,glycan array binding signal (z-score),[15],-0.323
same,glycan array binding signal (z-score),[16],0.141
same,glycan array binding signal (z-score),[17],0.624
same,glycan array binding signal (z-score),[18],0.539
same,glycan array binding signal (z-score),[19],0.553
same,glycan array binding signal (z-score),[20],-1.21
same,glycan array binding signal (z-score),[21],-0.716
same,glycan array binding signal (z-score),[22],0.036
same,glycan array binding signal (z-score),[23],-0.603
same,glycan array binding signal (z-score),Neu5Ac(a2-3)Gal(b1-4)Glc,0.251
same,glycan array binding signal (z-score),[24],-0.145
same,glycan array binding signal (z-score),[25],2.51
same,glycan array binding signal (z-score),[26],0.501
same,glycan array binding signal (z-score),[27],-1.12
same,glycan array binding signal (z-score),[28],0.934
same,glycan array binding signal (z-score),[29],1.35
same,glycan array binding signal (z-score),[30],0.408
same,glycan array binding signal (z-score),[31],1.65
same,glycan array binding signal (z-score),[32],-0.474
same,glycan array binding signal (z-score),[33],-0.608
same,glycan array binding signal (z-score),[34],-0.388
same,glycan array binding signal (z-score),[35],-0.428

# A different layout for some results above.
binder | measurement | setting | value
B1 | glycan array binding signal (z-score) | [10] | 7.19
same | glycan array binding signal (z-score) | [13] | 0.761
same | glycan array binding signal (z-score) | [17] | 0.624
